This note sets out measurements from doi:10.1101/2025.10.30.684516.

By UniProt entry, the sequences of proteins in these tests, tags left out. Residues count along the entry.
UniProt Q9UBN7: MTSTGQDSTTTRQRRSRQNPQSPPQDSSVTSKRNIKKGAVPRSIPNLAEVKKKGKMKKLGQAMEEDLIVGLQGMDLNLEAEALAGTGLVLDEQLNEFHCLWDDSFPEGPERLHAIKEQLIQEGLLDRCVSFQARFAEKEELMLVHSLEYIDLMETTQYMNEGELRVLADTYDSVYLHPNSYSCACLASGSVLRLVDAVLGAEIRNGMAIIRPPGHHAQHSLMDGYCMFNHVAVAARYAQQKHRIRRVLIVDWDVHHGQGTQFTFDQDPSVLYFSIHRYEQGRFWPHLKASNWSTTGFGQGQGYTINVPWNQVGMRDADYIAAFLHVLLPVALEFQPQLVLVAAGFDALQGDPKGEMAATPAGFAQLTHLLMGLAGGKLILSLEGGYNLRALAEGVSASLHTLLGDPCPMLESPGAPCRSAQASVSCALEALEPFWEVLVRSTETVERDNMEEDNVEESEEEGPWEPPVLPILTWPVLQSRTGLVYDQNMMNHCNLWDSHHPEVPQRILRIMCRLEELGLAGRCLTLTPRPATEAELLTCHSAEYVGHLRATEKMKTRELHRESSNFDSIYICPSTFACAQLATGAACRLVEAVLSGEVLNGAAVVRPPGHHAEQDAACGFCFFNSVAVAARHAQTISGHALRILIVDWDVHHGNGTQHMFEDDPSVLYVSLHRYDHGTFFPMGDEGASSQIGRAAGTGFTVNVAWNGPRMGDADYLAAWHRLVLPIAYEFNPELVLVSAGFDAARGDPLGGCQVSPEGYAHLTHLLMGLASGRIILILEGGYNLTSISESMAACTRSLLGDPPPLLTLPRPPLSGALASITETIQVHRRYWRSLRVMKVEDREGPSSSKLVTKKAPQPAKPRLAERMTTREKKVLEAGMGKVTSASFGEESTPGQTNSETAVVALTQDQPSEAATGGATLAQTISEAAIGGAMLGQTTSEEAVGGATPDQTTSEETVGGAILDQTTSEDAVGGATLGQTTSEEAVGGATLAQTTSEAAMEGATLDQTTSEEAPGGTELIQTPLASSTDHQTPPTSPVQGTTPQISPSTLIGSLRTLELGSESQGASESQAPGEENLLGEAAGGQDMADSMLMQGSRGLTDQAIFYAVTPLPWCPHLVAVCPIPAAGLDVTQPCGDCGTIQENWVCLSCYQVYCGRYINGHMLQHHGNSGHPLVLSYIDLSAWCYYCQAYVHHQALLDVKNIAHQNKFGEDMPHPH
UniProt P08670: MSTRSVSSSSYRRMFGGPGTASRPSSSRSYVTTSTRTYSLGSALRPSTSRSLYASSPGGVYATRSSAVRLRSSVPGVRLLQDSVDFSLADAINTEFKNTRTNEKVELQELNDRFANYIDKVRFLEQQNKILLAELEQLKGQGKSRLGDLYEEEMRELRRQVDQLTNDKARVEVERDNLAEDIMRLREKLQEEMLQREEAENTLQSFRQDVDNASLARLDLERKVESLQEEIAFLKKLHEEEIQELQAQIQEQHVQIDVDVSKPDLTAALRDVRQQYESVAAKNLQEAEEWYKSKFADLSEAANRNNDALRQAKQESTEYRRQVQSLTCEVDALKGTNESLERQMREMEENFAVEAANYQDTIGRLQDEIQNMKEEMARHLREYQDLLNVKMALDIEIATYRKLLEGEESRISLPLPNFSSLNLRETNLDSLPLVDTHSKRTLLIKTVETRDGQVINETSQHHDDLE
UniProt O76031, residues 57-633: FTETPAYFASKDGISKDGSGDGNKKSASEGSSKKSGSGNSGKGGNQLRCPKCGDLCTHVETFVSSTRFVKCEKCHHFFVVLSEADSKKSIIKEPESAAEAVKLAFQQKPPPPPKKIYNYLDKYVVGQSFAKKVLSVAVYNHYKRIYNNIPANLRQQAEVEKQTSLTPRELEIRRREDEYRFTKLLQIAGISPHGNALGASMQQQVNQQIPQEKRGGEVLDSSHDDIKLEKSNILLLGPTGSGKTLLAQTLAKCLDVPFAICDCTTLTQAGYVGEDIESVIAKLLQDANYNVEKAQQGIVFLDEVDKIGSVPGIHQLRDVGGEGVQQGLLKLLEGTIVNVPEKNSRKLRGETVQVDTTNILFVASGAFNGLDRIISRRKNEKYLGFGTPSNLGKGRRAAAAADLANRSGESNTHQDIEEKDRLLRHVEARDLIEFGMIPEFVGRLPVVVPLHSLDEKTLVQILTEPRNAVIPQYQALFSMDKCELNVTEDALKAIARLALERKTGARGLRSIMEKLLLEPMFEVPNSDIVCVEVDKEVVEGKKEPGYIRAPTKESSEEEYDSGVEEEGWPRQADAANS
UniProt P15927: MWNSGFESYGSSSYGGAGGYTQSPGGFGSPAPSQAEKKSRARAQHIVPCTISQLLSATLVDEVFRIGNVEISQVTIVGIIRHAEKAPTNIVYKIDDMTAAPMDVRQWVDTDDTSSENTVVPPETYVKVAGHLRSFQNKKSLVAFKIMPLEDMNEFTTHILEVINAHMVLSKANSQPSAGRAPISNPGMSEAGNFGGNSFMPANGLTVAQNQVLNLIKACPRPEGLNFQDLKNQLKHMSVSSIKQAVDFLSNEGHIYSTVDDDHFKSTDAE
UniProt O75475: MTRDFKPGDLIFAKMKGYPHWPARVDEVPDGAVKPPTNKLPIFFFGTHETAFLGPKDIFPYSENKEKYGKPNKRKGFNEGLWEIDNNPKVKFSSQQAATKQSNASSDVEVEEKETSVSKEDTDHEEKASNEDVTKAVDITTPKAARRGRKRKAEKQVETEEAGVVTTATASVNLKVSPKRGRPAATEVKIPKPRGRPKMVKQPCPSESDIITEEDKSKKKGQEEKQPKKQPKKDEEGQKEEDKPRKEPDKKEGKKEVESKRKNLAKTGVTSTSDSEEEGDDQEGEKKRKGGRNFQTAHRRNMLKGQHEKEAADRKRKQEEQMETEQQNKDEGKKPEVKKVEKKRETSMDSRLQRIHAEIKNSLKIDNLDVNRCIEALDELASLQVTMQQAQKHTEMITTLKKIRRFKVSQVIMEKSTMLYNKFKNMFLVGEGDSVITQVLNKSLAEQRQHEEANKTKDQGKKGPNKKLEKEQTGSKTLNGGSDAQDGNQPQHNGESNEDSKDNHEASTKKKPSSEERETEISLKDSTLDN
UniProt P06748: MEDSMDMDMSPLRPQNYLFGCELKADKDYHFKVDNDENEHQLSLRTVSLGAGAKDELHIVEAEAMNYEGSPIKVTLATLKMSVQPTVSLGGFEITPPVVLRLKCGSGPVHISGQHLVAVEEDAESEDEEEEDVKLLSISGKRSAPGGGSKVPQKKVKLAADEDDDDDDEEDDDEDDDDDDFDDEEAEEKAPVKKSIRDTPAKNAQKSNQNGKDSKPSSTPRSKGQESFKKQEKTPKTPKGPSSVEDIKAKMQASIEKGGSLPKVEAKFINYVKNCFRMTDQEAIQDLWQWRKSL
UniProt P11940: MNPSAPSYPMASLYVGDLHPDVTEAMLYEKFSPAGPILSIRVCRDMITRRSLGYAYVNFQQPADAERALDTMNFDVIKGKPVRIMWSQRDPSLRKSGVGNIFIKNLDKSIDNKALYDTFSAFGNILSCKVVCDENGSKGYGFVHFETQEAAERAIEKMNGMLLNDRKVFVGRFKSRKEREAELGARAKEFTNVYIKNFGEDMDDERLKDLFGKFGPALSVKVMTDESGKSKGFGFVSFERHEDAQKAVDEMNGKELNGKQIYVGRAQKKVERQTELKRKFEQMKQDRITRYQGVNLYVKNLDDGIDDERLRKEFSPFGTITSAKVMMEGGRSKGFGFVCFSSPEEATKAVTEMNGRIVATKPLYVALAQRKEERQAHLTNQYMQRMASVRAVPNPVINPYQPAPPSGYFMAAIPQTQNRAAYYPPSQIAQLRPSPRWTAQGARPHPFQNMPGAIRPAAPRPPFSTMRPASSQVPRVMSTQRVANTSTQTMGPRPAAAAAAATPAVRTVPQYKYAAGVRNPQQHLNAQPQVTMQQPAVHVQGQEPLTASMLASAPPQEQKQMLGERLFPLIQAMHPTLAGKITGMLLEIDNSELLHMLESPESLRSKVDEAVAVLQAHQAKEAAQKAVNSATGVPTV
UniProt P12270: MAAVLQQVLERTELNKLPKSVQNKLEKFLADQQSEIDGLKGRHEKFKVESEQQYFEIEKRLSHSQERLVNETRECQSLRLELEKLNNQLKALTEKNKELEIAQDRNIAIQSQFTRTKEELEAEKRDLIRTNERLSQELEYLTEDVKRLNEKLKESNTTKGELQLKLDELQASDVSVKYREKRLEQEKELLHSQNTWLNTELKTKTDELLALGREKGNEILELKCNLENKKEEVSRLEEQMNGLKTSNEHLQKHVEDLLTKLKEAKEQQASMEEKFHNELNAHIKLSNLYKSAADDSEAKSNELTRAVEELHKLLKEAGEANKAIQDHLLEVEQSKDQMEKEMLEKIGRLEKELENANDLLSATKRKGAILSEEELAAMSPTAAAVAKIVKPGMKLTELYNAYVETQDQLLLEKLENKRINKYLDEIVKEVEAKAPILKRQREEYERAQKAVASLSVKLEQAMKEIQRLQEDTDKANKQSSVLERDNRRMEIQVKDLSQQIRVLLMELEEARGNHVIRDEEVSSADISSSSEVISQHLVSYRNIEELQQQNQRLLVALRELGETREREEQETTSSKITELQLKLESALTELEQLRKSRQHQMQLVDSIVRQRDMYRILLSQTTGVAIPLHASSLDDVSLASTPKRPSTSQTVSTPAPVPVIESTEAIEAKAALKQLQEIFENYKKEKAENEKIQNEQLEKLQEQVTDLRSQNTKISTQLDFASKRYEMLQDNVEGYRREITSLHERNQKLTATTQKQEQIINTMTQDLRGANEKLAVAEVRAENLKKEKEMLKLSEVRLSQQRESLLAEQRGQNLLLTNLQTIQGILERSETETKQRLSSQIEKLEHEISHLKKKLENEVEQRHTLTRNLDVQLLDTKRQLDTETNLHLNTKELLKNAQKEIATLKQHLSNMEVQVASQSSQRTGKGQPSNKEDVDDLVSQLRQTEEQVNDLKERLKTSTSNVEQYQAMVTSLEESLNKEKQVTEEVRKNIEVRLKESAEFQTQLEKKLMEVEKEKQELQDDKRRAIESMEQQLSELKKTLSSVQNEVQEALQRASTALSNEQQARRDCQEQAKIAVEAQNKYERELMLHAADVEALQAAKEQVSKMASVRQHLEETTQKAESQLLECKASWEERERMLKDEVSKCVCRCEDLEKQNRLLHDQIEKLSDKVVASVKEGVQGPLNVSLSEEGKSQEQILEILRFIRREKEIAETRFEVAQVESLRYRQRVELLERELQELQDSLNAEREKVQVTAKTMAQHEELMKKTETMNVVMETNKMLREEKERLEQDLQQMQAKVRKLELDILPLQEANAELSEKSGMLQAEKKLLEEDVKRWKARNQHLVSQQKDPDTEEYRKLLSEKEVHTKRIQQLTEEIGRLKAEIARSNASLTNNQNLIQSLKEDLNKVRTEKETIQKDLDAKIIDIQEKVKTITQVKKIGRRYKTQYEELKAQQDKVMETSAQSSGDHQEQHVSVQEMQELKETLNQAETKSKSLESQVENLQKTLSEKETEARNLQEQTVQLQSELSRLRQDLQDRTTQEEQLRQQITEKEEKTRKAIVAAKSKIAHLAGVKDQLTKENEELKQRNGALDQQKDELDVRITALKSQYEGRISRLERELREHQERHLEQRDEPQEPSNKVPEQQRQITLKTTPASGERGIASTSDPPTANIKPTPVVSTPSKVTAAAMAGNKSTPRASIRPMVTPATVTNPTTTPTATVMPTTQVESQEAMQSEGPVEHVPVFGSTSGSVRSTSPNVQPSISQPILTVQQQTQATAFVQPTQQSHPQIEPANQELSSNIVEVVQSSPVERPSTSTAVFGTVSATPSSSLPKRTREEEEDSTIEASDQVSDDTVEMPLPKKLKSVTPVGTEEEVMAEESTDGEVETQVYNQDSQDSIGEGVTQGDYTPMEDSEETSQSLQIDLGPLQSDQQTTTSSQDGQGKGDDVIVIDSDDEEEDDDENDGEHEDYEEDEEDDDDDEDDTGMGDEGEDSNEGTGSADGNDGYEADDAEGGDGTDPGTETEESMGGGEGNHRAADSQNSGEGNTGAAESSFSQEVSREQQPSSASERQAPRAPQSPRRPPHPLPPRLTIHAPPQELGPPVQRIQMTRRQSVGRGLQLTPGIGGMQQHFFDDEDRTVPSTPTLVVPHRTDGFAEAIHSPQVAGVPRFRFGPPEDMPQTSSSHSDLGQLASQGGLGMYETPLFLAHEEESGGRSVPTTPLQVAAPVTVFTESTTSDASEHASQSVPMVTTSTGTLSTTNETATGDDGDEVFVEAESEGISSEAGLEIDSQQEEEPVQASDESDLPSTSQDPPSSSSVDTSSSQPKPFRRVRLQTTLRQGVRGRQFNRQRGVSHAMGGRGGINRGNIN
UniProt Q06323: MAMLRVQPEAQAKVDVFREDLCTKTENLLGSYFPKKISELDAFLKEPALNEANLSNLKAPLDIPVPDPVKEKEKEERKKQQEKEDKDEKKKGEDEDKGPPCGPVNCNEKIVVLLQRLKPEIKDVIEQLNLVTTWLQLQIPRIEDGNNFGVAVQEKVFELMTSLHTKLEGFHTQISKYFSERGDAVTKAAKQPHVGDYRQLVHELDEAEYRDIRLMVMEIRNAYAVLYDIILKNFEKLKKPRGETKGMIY

Where two headings read alike, the source gives them in different places. Results are given in words; binding and its absence hold for the method and conditions named. In cells and extracts the contact can be indirect. These calls come from enrichment with a bait or labelling near it, and not all partners need be listed.

What all share (test): proximity labelling
Test [1] deals with HDAC6-APEX2-GFP (UniProt Q9UBN7).
For test [2], the target named is VIM-APEX2-GFP (UniProt P08670).
The target of test [3] is HDAC6-APEX2-GFP (UniProt Q9UBN7). The source holds these as a separate data set.
The target of test [4] is VIM-APEX2-GFP (UniProt P08670). The source holds these as a separate data set.

Turning to ClpX (from UniProt O76031 57-633), the binding entry with HDAC6-APEX2-GFP [1] and with VIM-APEX2-GFP [2] was “binds” each time. Turning to SMC3 (from UniProt Q9UQE7 1-1217), the binding entry with HDAC6-APEX2-GFP [1] is recorded as “binds”. The same measure, in the same setting: the result for RPA2 (from UniProt P15927 1-270) reads “binds”; that for PSIP1 (from UniProt O75475 1-530), “binds”. Same read-out and setting: the same measure for NPM1 (from UniProt P06748 1-294): “binds”. As for PABPC1 (from UniProt P11940 1-636), the binding entry in the test with HDAC6-APEX2-GFP [1] and with VIM-APEX2-GFP [2] was “binds” throughout. Consider TPR (from UniProt P12270 1-2363), for which the binding entry in the test with HDAC6-APEX2-GFP [1] is recorded as “binds”. Regarding “PSME1 (Proteasome activator subunit 1) (from UniProt Q06323 1-249)”, the binding result with HDAC6-APEX2-GFP [1] and with VIM-APEX2-GFP [2] was “binds” each time.

B1: RFC1 (protein, UniProt P35251 1-1148)
chain: MDIRKFFGVIPSGKKLVSETVKKNEKTKSDEETLKAKKGIKEIKVNSSRKEDDFKQKQPSKKKRIIYDSDSESEETLQVKNAKKPPEKLPVSSKPGKISRQDPVTYISETDEEDDFMCKKAASKSKENGRSTNSHLGTSNMKKNEENTKTKNKPLSPIKLTPTSVLDYFGTGSVQRSNKKMVASKRKELSQNTDESGLNDEAIAKQLQLDEDAELERQLHEDEEFARTLAMLDEEPKTKKARKDTEAGETFSSVQANLSKAEKHKYPHKVKTAQVSDERKSYSPRKQSKYESSKESQQHSKSSADKIGEVSSPKASSKLAIMKRKEESSYKEIEPVASKRKENAIKLKGETKTPKKTKSSPAKKESVSPEDSEKKRTNYQAYRSYLNREGPKALGSKEIPKGAENCLEGLIFVITGVLESIERDEAKSLIERYGGKVTGNVSKKTNYLVMGRDSGQSKSDKAAALGTKIIDEDGLLNLIRTMPGKKSKYEIAVETEMKKESKLERTPQKNVQGKRKISPSKKESESKKSRPTSKRDSLAKTIKKETDVFWKSLDFKEQVAEETSGDSKARNLADDSSENKVENLLWVDKYKPTSLKTIIGQQGDQSCANKLLRWLRNWQKSSSEDKKHAAKFGKFSGKDDGSSFKAALLSGPPGVGKTTTASLVCQELGYSYVELNASDTRSKSSLKAIVAESLNNTSIKGFYSNGAASSVSTKHALIMDEVDGMAGNEDRGGIQELIGLIKHTKIPIICMCNDRNHPKIRSLVHYCFDLRFQRPRVEQIKGAMMSIAFKEGLKIPPPAMNEIILGANQDIRQVLHNLSMWCARSKALTYDQAKADSHRAKKDIKMGPFDVARKVFAAGEETAHMSLVDKSDLFFHDYSIAPLFVQENYIHVKPVAAGGDMKKHLMLLSRAADSICDGDLVDSQIRSKQNWSLLPAQAIYASVLPGELMRGYMTQFPTFPSWLGKHSSTGKHDRIVQDLALHMSLRTYSSKRTVNMDYLSLLRDALVQPLTSQGVDGVQDVVALMDTYYLMKEDFENIMEISSWGGKPSPFSKLDPKVKAAFTRAYNKEAHLTPYSLQAIKASRHSTSPSLDSEYNEELNEDDSQSDEKDQDAIETDAMIKKKTKSSKPSKPEKDKEPRKGKGKSSKK
On to B1, for which the binding entry with HDAC6-APEX2-GFP [3] is on record as “binds”.

B2: UBLCP1 (Ubiquitin-like domain-containing C-terminal phosphatase 1) (protein, UniProt Q8WVY7 1-318)
chain: MALPIIVKWGGQEYSVTTLSEDDTVLDLKQFLKTLTGVLPERQKLLGLKVKGKPAENDVKLGALKLKPNTKIMMMGTREESLEDVLGPPPDNDDVVNDFDIEDEVVEVENREENLLKISRRVKEYKVEILNPPREGKKLLVLDVDYTLFDHRSCAETGVELMRPYLHEFLTSAYEDYDIVIWSATNMKWIEAKMKELGVSTNANYKITFMLDSAAMITVHTPRRGLIDVKPLGVIWGKFSEFYSKKNTIMFDDIGRNFLMNPQNGLKIRPFMKAHLNRDKDKELLKLTQYLKEIAKLDDFLDLNHKYWERYLSKKQGQ
B2: the binding result with HDAC6-APEX2-GFP [3] and in the test with VIM-APEX2-GFP [4] was “binds” each time.

B3: ACADM (protein, UniProt P11310 26-421)
chain: KANRQREPGLGFSFEFTEQQKEFQATARKFAREEIIPVAAEYDKTGEYPVPLIRRAWELGLMNTHIPENCGGLGLGTFDACLISEELAYGCTGVQTAIEGNSLGQMPIIIAGNDQQKKKYLGRMTEEPLMCAYCVTEPGAGSDVAGIKTKAEKKGDEYIINGQKMWITNGGKANWYFLLARSDPDPKAPANKAFTGFIVEADTPGIQIGRKELNMGQRCSDTRGIVFEDVKVPKENVLIGDGAGFKVAMGAFDKTRPVVAAGAVGLAQRALDEATKYALERKTFGKLLVEHQAISFMLAEMAMKVELARMSYQRAAWEVDSGRRNTYYASIAKAFAGDIANQLATDAVQILGGNGFNTEYPVEKLMRDAKIYQIYEGTSQIQRLIVAREHIDKYKN
Take B3: in the test with HDAC6-APEX2-GFP [3], the binding entry is “binds”.
